Literature values as cited in US20020016293A1 (priority 2000, published 2002).
Structures can show the parent of a compound that is named as a salt. Where two headings read alike, the source gives them in different places.

Settings: cited from earlier work

SMILES | duration of action (intramuscular or subcutaneous) | duration of action (intramuscular or subcutaneous, listed as enanthate salt) | onset of action (hydrochloride: oral or intramuscular, enanthate: after injection) | duration of action (oral or intramuscular)
CCCCCCCCCC(=O)OCCN1CCN(CCCN2c3ccccc3Sc3ccc(C(F)(F)F)cc32)CC1 [Fluphenazine decanoate] | about 4 wk |  |  | 
CCCCCCC(=O)OCCN1CCN(CCCN2c3ccccc3Sc3ccc(C(F)(F)F)cc32)CC1 [Fluphenazine enanthate] | about 2 wk | 2 wk |  | 
OCCN1CCN(CCCN2c3ccccc3Sc3ccc(C(F)(F)F)cc32)CC1 [Fluphenazine hydrochloride] |  |  | ≤ 1 h | 6 h
